Test results reported in the supplement of paper PMC3334620.
Whole data set: some 33,000 sequences, median “E-score (-0.5 to 0.5)” near -0.0059, cut for the highest 2% near 0.26. The list shows a part of the results.

Each sequence was assayed against T1, Cin5 (UniProt P40917) (assay: PBM E-score (8-mer binding enrichment) (E-score (-0.5 to 0.5)); higher = stronger / more preferred TF binding). Settings: protein concentration: 100 nM; construct: GST-full length.
T1 sequence: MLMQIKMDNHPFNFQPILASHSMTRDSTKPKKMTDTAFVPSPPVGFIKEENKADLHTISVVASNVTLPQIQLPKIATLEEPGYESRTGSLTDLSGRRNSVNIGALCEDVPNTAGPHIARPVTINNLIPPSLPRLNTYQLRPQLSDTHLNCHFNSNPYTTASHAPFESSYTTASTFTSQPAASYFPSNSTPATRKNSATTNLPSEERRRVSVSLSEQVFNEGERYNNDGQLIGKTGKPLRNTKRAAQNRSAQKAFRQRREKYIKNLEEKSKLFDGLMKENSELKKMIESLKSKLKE
Experimental: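 Universal 'all 10-mer' protein binding microarrays (Agilent AMADID 015681) probed with GST-tagged S. cerevisiae TFs (full-length or DBD) made by in vitro transcription/translation (PURExpress), about 100-200 nM. Bound TF was detected with fluorescent anti-GST. Each ungapped 8-mer (which stands for itself and its reverse complement) is scored by the PBM enrichment score (E-score), a modified Wilcoxon-Mann-Whitney statistic from -0.5 to +0.5, computed with the Universal PBM Analysis Suite. Scale: above 0.35 generally sequence-specific binding.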

| Sequence | PBM E-score |
| --- | --- |
| AACTCTCG | 0.0393 |
| TGTGCTAA | 0.125 |
| GGACTTTA | -0.0756 |
| AACCTTAG | -0.131 |
| GGACCCGA | -0.0855 |
| GTGACAAA | 0.115 |
| TAAATACA | 0.0976 |
| TCGTGAAA | -0.217 |
| CGCGCAGA | 0.178 |
| ATGGTGGG | -0.078 |
| TAATGAAA | 0.203 |
| TACTTACA | 0.167 |
| CAGGCGAG | -0.136 |
| AGGACATC | 0.0116 |
| AACTCCTC | -0.214 |
| GCGGCATA | 0.088 |
| GTTCAAGA | -0.162 |
| ATCGGAAA | 0.0538 |
| GCCTACCC | -0.161 |
| CCGCCGTC | 0.0344 |
| GCCCTACC | -0.197 |
| ATGGAGCA | -0.0264 |
| TGACAGCA | 0.115 |
| ACGACGTG | -0.0434 |
| CACACTAG | -0.0474 |

| Sequence | PBM E-score |
| --- | --- |
| ACGAATGA | 0.245 |
| GGCTACAA | 0.038 |
| CGACTTGA | -0.0696 |
| ACCAGTGA | -0.0142 |
| GAATTGAA | 0.185 |
| CTAGCCTC | -0.159 |
| AATCGGAC | 0.00251 |
| CCACTGTA | 0.0953 |
| GGCGTGAA | -0.183 |
| ACTGAGCG | -0.247 |
| GCGTATCA | -0.0134 |
| AAGTCCAC | -0.187 |
| CAGCGGCA | -0.0718 |
| AATAACTG | 0.121 |
| GCTCGAGC | 0.125 |
| ACAGGCTG | -0.133 |
| ACGGGAAA | 0.0935 |
| GACAAGGC | -0.0783 |
| ATAGGTCA | 0.0611 |
| AGGGGGTG | -0.424 |
| CGCCTGAA | 0.0355 |
| ACAATGAC | -0.0847 |
| GAATTTAC | 0.161 |
| CAGACTGA | -0.124 |
| CTATTTCC | 0.243 |

| Sequence | PBM E-score |
| --- | --- |
| CACACCCC | -0.199 |
| ACATACGT | -0.0596 |
| TATATACA | 0.187 |
| ACCCGGCG | -0.207 |
| AGCAGACT | -0.103 |
| ACCCAAAA | 0.0246 |
| GGTACGTA | -0.032 |
| CAAGGCAA | -0.0439 |
| GCCTTCGC | 0.0354 |
| CGTGCGAA | -0.0107 |
| CCATATCC | 0.0404 |
| AGGGCGAT | -0.213 |
| AACTTCTT | 0.0633 |
| CATGTGAC | -0.216 |
| AACATAGA | 0.196 |
| ACCGCAGG | -0.079 |
| ACATGTAT | 0.189 |
| CGCCCTCA | -0.184 |
| CGCAAGCA | 0.0297 |
| ATGAAGGC | -0.0561 |
| CTTAACCA | 0.0916 |
| AGATGACC | -0.0783 |
| TAAACGAA | 0.0778 |
| ACGCGAAT | 0.0922 |
| GGACTAGA | 0.0253 |

| Sequence | PBM E-score |
| --- | --- |
| CACGATGG | -0.139 |
| GCACCTAA | -0.0501 |
| AGTCGGTG | -0.106 |
| AATGCGAG | 0.221 |
| TATTAACA | 0.195 |
| AGAAGTGG | -0.0208 |
| AACAATCT | 0.0905 |
| CGCGTCGC | -0.151 |
| ACCATTAT | 0.0583 |
| AAGGTAAA | 0.0132 |
| GCCTCGAC | -0.235 |
| ACGTAAGG | 0.199 |
| ATAGATAT | 0.145 |
| ACAACCTG | -0.147 |
| ATACACCA | -0.0393 |
| AGTGGGAG | -0.095 |
| AGTGTCGC | 0.0371 |
| ATTTGATA | 0.319 |
| AGCATACT | 0.0194 |
| AGATCTAG | -0.127 |
| CCATACTA | 0.127 |
| CTCGTACC | -0.11 |
| TCTACGAA | -0.233 |
| TCTGCAGA | -0.0621 |
| ATTTTCCC | 0.0377 |

Nothing new here: an excerpt of the list.

| Sequence | PBM E-score |
| --- | --- |
| ATACACCA | -0.0393 |
| AGTGGGAG | -0.095 |
| AGTGTCGC | 0.0371 |
| ATTTGATA | 0.319 |
| AGCATACT | 0.0194 |

Random excerpt: six records from the list.

| Sequence | PBM E-score |
| --- | --- |
| CCATACTA | 0.127 |
| ATTTGATA | 0.319 |
| ATACACCA | -0.0393 |
| ATTTTCCC | 0.0377 |
| AGTGTCGC | 0.0371 |
| AGAAGTGG | -0.0208 |

(cont.)

| Sequence | PBM E-score |
| --- | --- |
| GGCACACC | -0.217 |
| CGACTAAG | -0.145 |
| GTATTTAA | 0.154 |
| CAGGATGC | -0.0864 |
| AGCTGTGC | -0.121 |
| AAGCATGC | 0.0448 |
| GAAAAGAA | 0.054 |
| AGGGCCGA | -0.06 |
| ACGCGGCA | -0.124 |
| CGGTAGCA | -0.0591 |
| AAGTAAAT | 0.226 |
| ATGGACAC | 0.0133 |
| CTGCTTTC | 0.058 |
| GAGGATAA | 0.0764 |
| ACTGAACA | 0.185 |
| AGGGCTGA | -0.0942 |
| TACACATA | 0.238 |
| AGGTAGCG | -0.0989 |
| GCATATGC | -0.0363 |
| ACGCCGGC | 0.131 |
| AGCAAGAG | -0.116 |
| AGAATGTA | 0.071 |
| GGTTGCAA | 0.0262 |
| CCCGAACA | 0.147 |
| AATAGCCC | -0.00512 |

| Sequence | PBM E-score |
| --- | --- |
| ATTGGTTA | 0.225 |
| CGGAAATA | 0.33 |
| AACTGCTT | -0.0248 |
| TACGCGGA | -0.0412 |
| ACGCCGCG | 0.0692 |
| CGAAATTC | 0.0842 |
| AAGTACCT | -0.109 |
| ATGCTGGC | 0.0323 |
| ACGATCAC | 0.0378 |
| CGTCCCGA | -0.185 |
| CCCTAGAA | -0.0914 |
| ACACGTAT | -0.00152 |
| CAGAACGG | -0.165 |
| GACTATAA | -0.0336 |
| ACTGATCC | -0.0946 |
| AACCACCC | -0.102 |
| AAACAAAT | 0.249 |
| GCAAAACC | -0.00578 |
| CTGAAACC | 0.0371 |
| AATCACAG | 0.0249 |
| CAATTACG | 0.123 |
| CTACCGAC | -0.0852 |
| ATTTTGAC | 0.128 |
| GCCCAGCC | -0.0782 |
| AAAACGGT | -0.0934 |

| Sequence | PBM E-score |
| --- | --- |
| ATTTGCGA | 0.102 |
| CCTCCACG | -0.169 |
| AAGGGGAG | -0.252 |
| CGGGTAGA | -0.0977 |
| CATCACCA | 0.11 |
| CTGCAGTA | -0.23 |
| TCTAAAAA | -0.11 |
| ACCTTTTC | -0.0701 |
| CCCGCCGC | 0.143 |
| TGAAAGAA | 0.105 |
| GTTTGACA | 0.0616 |
| ACGCACGT | -0.233 |
| ACGATAGA | -0.105 |
| CCATGTTC | 0.034 |
| AGATCCGG | -0.0839 |
| GACGCGAA | -0.0353 |
| AAAAGAAT | 0.257 |
| TACGACAA | 0.157 |
| CGCGTACC | -0.118 |
| ACAGGTAT | 0.177 |
| AGAAGATG | -0.0111 |
| ACCACTCC | -0.0563 |
